The supplement of paper PMC7661543
± gives the standard deviation of the averaged measurements. The effect of the compound repeats well; differences between the knockouts mostly do not.

Tested on: HCC-38
Assay: relative cell number vs DMSO control (72 h) (% of DMSO); higher = less growth inhibition (more cells)
Procedure: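 QMAP-Seq: a pool of 5 breast cancer cell lines (ZR-75-1, SKBR3, HCC-38, MDA-MB-231, BT-20), each carrying 12 doxycycline-inducible Cas9 sgRNA perturbations (11 knockouts plus non-targeting sgNT), was treated with compounds for 72 h at four 10-fold doses (10 nM-10 uM or 1 nM-1 uM range). Barcodes were amplified and sequenced, and cell number was interpolated from 293T spike-in standard curves. The result is expressed as % of the median of DMSO wells. Two biological replicates.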

[1] = sgRNA knockout: sgATF3, 1000 nM
[2] = sgRNA knockout: sgATF3, 10000 nM
[3] = sgRNA knockout: sgATF4, 1000 nM
[4] = sgRNA knockout: sgATF4, 10000 nM
[5] = sgRNA knockout: sgATF6, 1000 nM
[6] = sgRNA knockout: sgATF6, 10000 nM
[7] = sgRNA knockout: sgATG7, 1000 nM
[8] = sgRNA knockout: sgATG7, 10000 nM
[9] = sgRNA knockout: sgERN1, 1000 nM
[10] = sgRNA knockout: sgERN1, 10000 nM
[11] = sgRNA knockout: sgHSF1, 1000 nM
[12] = sgRNA knockout: sgHSF1, 10000 nM
[13] = sgRNA knockout: sgHSF2, 1000 nM
[14] = sgRNA knockout: sgHSF2, 10000 nM
[15] = sgRNA knockout: sgKEAP1, 100 nM
[16] = sgRNA knockout: sgKEAP1, 1000 nM
[17] = sgRNA knockout: sgKEAP1, 10000 nM
[18] = sgRNA knockout: sgNFE2L2, 10 nM
[19] = sgRNA knockout: sgNFE2L2, 100 nM
[20] = sgRNA knockout: sgNFE2L2, 1000 nM
[21] = sgRNA knockout: sgNFE2L2, 10000 nM
[22] = sgRNA knockout: sgSLC35F2, 10 nM
[23] = sgRNA knockout: sgSLC35F2, 100 nM
[24] = sgRNA knockout: sgSLC35F2, 1000 nM
[25] = sgRNA knockout: sgSLC35F2, 10000 nM
[26] = sgRNA knockout: sgXBP1, 1000 nM
[27] = sgRNA knockout: sgXBP1, 10000 nM

## CN(C)CC[C@H](CSc1ccccc1)Nc1ccc(S(=O)(=O)NC(=O)c2ccc(N3CCN(Cc4ccccc4-c4ccc(Cl)cc4)CC3)cc2)cc1[N+](=O)[O-] [ABT737]
sgRNA knockout: sgATF3, 10 nM
  relative cell number: 111 ± 10
sgRNA knockout: sgATF3, 100 nM
  relative cell number: 83.5 ± 2
[1]
  relative cell number: 94.6 ± 4
[2]
  relative cell number: 50.4 ± 8.6
sgRNA knockout: sgATF4, 10 nM
  relative cell number: 97.1 ± 18
sgRNA knockout: sgATF4, 100 nM
  relative cell number: 90.4 ± 26
[3]
  relative cell number: 86.5 ± 5.7
[4]
  relative cell number: 80.9 ± 24
sgRNA knockout: sgATF6, 10 nM
  relative cell number: 117 ± 2.8
sgRNA knockout: sgATF6, 100 nM
  relative cell number: 91.7 ± 1.7
[5]
  relative cell number: 82.7 ± 1.3
[6]
  relative cell number: 50.1 ± 1.7
sgRNA knockout: sgATG7, 10 nM
  relative cell number: 97.8 ± 3.7
sgRNA knockout: sgATG7, 100 nM
  relative cell number: 89.8 ± 16
[7]
  relative cell number: 86.038 ± 0.0059
[8]
  relative cell number: 50.2 ± 5.8
sgRNA knockout: sgERN1, 10 nM
  relative cell number: 105 ± 11
sgRNA knockout: sgERN1, 100 nM
  relative cell number: 92.8 ± 19
[9]
  relative cell number: 91.4 ± 6.9
[10]
  relative cell number: 61.6 ± 0.63
sgRNA knockout: sgHSF1, 10 nM
  relative cell number: 106 ± 22
sgRNA knockout: sgHSF1, 100 nM
  relative cell number: 110.6 ± 1.1
[11]
  relative cell number: 93.7 ± 7.8
[12]
  relative cell number: 49.5 ± 1.4
sgRNA knockout: sgHSF2, 10 nM
  relative cell number: 110 ± 2.9
sgRNA knockout: sgHSF2, 100 nM
  relative cell number: 95.4 ± 19
[13]
  relative cell number: 101 ± 2.8
[14]
  relative cell number: 54.1 ± 2.3
sgRNA knockout: sgKEAP1, 10 nM
  relative cell number: 98.1 ± 9.6
[15]
  relative cell number: 112 ± 34
[16]
  relative cell number: 115 ± 8.1
[17]
  relative cell number: 50.7 ± 16
[18]
  relative cell number: 96 ± 9.3
[19]
  relative cell number: 87 ± 23
[20]
  relative cell number: 84.9 ± 4.8
[21]
  relative cell number: 67.9 ± 23
[22]
  relative cell number: 96.9 ± 7
[23]
  relative cell number: 92.5 ± 8.6
[24]
  relative cell number: 77.27 ± 0.29
[25]
  relative cell number: 60.5 ± 5.3
sgRNA knockout: sgXBP1, 10 nM
  relative cell number: 95.5 ± 6.7
sgRNA knockout: sgXBP1, 100 nM
  relative cell number: 90.2 ± 24
[26]
  relative cell number: 82.5 ± 0.98
[27]
  relative cell number: 52.7 ± 9.5

## CN/C(=N\CCSCc1nc[nH]c1C)NC#N [Cimetidine]
sgRNA knockout: sgATF3, 10 nM
  relative cell number: 108 ± 12
sgRNA knockout: sgATF3, 100 nM
  relative cell number: 102 ± 2
[1]
  relative cell number: 98.81 ± 0.34
[2]
  relative cell number: 104 ± 6.3
sgRNA knockout: sgATF4, 10 nM
  relative cell number: 103 ± 14
sgRNA knockout: sgATF4, 100 nM
  relative cell number: 105 ± 3.9
[3]
  relative cell number: 94.1 ± 5.7
[4]
  relative cell number: 96.9 ± 11
sgRNA knockout: sgATF6, 10 nM
  relative cell number: 113 ± 12
sgRNA knockout: sgATF6, 100 nM
  relative cell number: 96 ± 16
[5]
  relative cell number: 123 ± 2.7
[6]
  relative cell number: 134 ± 9.8
sgRNA knockout: sgATG7, 10 nM
  relative cell number: 102 ± 8.9
sgRNA knockout: sgATG7, 100 nM
  relative cell number: 111 ± 8.3
[7]
  relative cell number: 96 ± 13
[8]
  relative cell number: 98.1 ± 9.7
sgRNA knockout: sgERN1, 10 nM
  relative cell number: 101.7 ± 0.55
sgRNA knockout: sgERN1, 100 nM
  relative cell number: 108 ± 20
[9]
  relative cell number: 98.2 ± 16
[10]
  relative cell number: 116 ± 4.2
sgRNA knockout: sgHSF1, 10 nM
  relative cell number: 104 ± 20
sgRNA knockout: sgHSF1, 100 nM
  relative cell number: 114 ± 24
[11]
  relative cell number: 117 ± 12
[12]
  relative cell number: 140 ± 13
sgRNA knockout: sgHSF2, 10 nM
  relative cell number: 103 ± 3.5
sgRNA knockout: sgHSF2, 100 nM
  relative cell number: 113 ± 16
[13]
  relative cell number: 110 ± 16
[14]
  relative cell number: 106 ± 10
sgRNA knockout: sgKEAP1, 10 nM
  relative cell number: 129 ± 1.3
[15]
  relative cell number: 110 ± 40
[16]
  relative cell number: 118 ± 12
[17]
  relative cell number: 134 ± 12
[18]
  relative cell number: 100 ± 17
[19]
  relative cell number: 101 ± 3.7
[20]
  relative cell number: 98.1 ± 14
[21]
  relative cell number: 102 ± 18
[22]
  relative cell number: 99.4 ± 15
[23]
  relative cell number: 110 ± 1.2
[24]
  relative cell number: 91 ± 4.8
[25]
  relative cell number: 104 ± 7.3
sgRNA knockout: sgXBP1, 10 nM
  relative cell number: 98.2 ± 13
sgRNA knockout: sgXBP1, 100 nM
  relative cell number: 109 ± 6.5
[26]
  relative cell number: 97.6 ± 13
[27]
  relative cell number: 97.4 ± 14

## N#Cc1ccc(COC[C@H]2O[C@@H](n3c(NCc4ccc(Cl)c(Cl)c4)nc4c(N)ncnc43)[C@H](O)[C@@H]2O)cc1
sgRNA knockout: sgATF3, 10 nM
  relative cell number: 90.4 ± 16
sgRNA knockout: sgATF3, 100 nM
  relative cell number: 88.7 ± 23
[1]
  relative cell number: 98.8 ± 17
[2]
  relative cell number: 97.3 ± 30
sgRNA knockout: sgATF4, 10 nM
  relative cell number: 84.3 ± 16
sgRNA knockout: sgATF4, 100 nM
  relative cell number: 103 ± 9.7
[3]
  relative cell number: 95.4 ± 12
[4]
  relative cell number: 102 ± 12
sgRNA knockout: sgATF6, 10 nM
  relative cell number: 109.4 ± 0.42
sgRNA knockout: sgATF6, 100 nM
  relative cell number: 95 ± 2.9
[5]
  relative cell number: 119 ± 9.3
[6]
  relative cell number: 95.8 ± 14
sgRNA knockout: sgATG7, 10 nM
  relative cell number: 94.6 ± 16
sgRNA knockout: sgATG7, 100 nM
  relative cell number: 95.9 ± 11
[7]
  relative cell number: 100 ± 29
[8]
  relative cell number: 95.1 ± 23
sgRNA knockout: sgERN1, 10 nM
  relative cell number: 95.3 ± 8.4
sgRNA knockout: sgERN1, 100 nM
  relative cell number: 90.7 ± 9.4
[9]
  relative cell number: 107 ± 13
[10]
  relative cell number: 101 ± 21
sgRNA knockout: sgHSF1, 10 nM
  relative cell number: 113 ± 3.4
sgRNA knockout: sgHSF1, 100 nM
  relative cell number: 94.2 ± 25
[11]
  relative cell number: 110.65 ± 0.011
[12]
  relative cell number: 87.1 ± 12
sgRNA knockout: sgHSF2, 10 nM
  relative cell number: 96.1 ± 3.1
sgRNA knockout: sgHSF2, 100 nM
  relative cell number: 92.88 ± 0.87
[13]
  relative cell number: 99.1 ± 14
[14]
  relative cell number: 99.7 ± 22
sgRNA knockout: sgKEAP1, 10 nM
  relative cell number: 101 ± 9.1
[15]
  relative cell number: 91.5 ± 10
[16]
  relative cell number: 116 ± 17
[17]
  relative cell number: 101 ± 24
[18]
  relative cell number: 81.1 ± 23
[19]
  relative cell number: 97.7 ± 19
[20]
  relative cell number: 97.2 ± 19
[21]
  relative cell number: 91.2 ± 21
[22]
  relative cell number: 89 ± 18
[23]
  relative cell number: 103 ± 4.2
[24]
  relative cell number: 99.4 ± 11
[25]
  relative cell number: 90.9 ± 15
sgRNA knockout: sgXBP1, 10 nM
  relative cell number: 82.1 ± 12
sgRNA knockout: sgXBP1, 100 nM
  relative cell number: 101 ± 14
[26]
  relative cell number: 101 ± 18
[27]
  relative cell number: 98.4 ± 22
